Results are given in words; binding and its absence hold for the method and conditions named. Some binding calls cover weakened binding; strength is not graded here.
Experiments:
[1] = target: monomeric hActRIIB (human) (UniProt Q13705); assay: SPR (Biacore), 37 C
dimeric hActRIIB (human) [2] = target: dimeric hActRIIB (human) (UniProt Q13705); assay: SPR (Biacore), 37 C
[3] = target: monomeric hActRIIB (human) (UniProt Q13705); assay: SPR (BIACORE), 37 C, series of concentrations (not printed on the sheet)
dimeric hActRIIB (human) [4] = target: dimeric hActRIIB (human) (UniProt Q13705); assay: as above

Chains of the proteins cited; added tags and fusions are not shown. Lines headed by an entry give the natural chain unless they say otherwise; changes in a name come on top.
UniProt Q13705: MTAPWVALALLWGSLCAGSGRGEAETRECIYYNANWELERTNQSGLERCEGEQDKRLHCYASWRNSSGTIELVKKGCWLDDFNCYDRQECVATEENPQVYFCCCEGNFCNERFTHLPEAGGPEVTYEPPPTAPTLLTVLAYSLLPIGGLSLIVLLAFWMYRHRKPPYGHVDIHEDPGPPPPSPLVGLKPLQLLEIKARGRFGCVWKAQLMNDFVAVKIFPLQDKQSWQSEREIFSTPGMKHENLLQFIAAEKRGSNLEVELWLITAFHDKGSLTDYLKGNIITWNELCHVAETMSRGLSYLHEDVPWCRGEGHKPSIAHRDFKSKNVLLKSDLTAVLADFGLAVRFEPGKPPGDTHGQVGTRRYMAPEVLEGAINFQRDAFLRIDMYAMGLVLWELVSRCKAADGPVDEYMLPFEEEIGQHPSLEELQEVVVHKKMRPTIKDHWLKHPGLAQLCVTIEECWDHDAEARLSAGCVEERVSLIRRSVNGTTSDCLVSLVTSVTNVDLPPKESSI

binding [1]: binds | binding (dimeric hActRIIB (human) [2]): binds | binding [3]: binds | binding (dimeric hActRIIB (human) [4]): binds
B1: B01 (antibody, V domains shown)
VH: QVQLQESGPGLVKPSQTLSLTCTVSGGSILSGGYYWSWIRQHPGKGLEWIGGIYYSGKTYYNPSLKSRVTISVDTSKNQFSLKLSSVTAADTAVYYCARDSGIGYSYASSHGYYYYMDVWGKGTTVTVSS
VL: EIVLTQSPATLSVSPGERATLSCRASQSVGSNLAWYQQKPGQAPRLLIYGASTRATGIPARFSGSGSGTEFTLTISSLQSEDFAVYYCQQYFHFPLTFGGGTKVEIK
